This data set is described as follows: Size-exclusion chromatography of syndecan-4 cytoplasmic tail peptides (oligomerization). In kind it is physicochemical. To be noted: 300 μM peptide incubated with 350 μM PIP2. For orientation: SEC sorts molecules by how far they enter the pores of the column.

“S4c-P: similar syndecan-4 cytoplasmic tail peptide with a phosphorylated Ser (RMKKKDEGSYDLGKKPIYKKAPTNEFYA)”: the elution profile result is on record as “single peak”.

The values are drawn from US6815187B1, “Stimulation of angiogenesis via syndecan-4 cytoplasmic domain signaling pathway” (Beth Israel Deaconess Medical Center, priority 1998, dated 2004).
